In the supplement of paper PMC9135407:
Values joined by “and” are separate entries in the source; they are usually repeats but may differ in a detail not shown here. Equal values may be shown once. Where a name gives a salt, the structure may show the parent alone. ± gives the standard deviation of the averaged measurements. Some of the results follow. Part of the spread comes from offsets between plates or batches.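 Culture-activated primary human stellate myofibroblasts, where regained lipid droplets signal inactivation. Value: share of Hoechst-counted cells above a per-plate Bodipy cutoff, in duplicate wells, with DMSO negative and nortriptyline positive controls on each plate. Hits: a control-normalized score above the plate's top-tenth-percentile nortriptyline wells, or one of a plate's three best wells. Final well concentrations are not given.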

System: primary human hepatic stellate cells (donor 1)
Assay: percent Bodipy-positive cells; higher = more lipid droplet accumulation
Conditions: 48 h
[1] = library stock concentration: 10 mM
[2] = library stock concentration: 3.33 mM
[3] = library stock concentration: 80 uM
[4] = library stock concentration: 400 uM
[5] = library stock concentration: 2 mM
[6] = library stock concentration: 6.7 mM
[7] = library stock concentration: 1 mM

Q: Which “percent Bodipy-positive cells” value [1] does the source give for `CN1c2ccccc2C(NCCCCCCC(=O)O)c2ccc(Cl)cc2S1(=O)=O` (configuration not stated) [Tianeptine] here?
A: 4.2 ± 2.6%

Q: What does the source list for `CN1c2ccccc2C(NCCCCCCC(=O)O)c2ccc(Cl)cc2S1(=O)=O` (configuration not stated) [Tianeptine sodium]?
A: percent Bodipy-positive cells [2]: 5.81 ± 3.6%; percent Bodipy-positive cells [1]: 14.9 ± 6.5%

Q: `C#C[C@]1(O)CC[C@H]2[C@@H]3CCC4=Cc5nc6nc7ccccc7n6cc5C[C@]4(C)[C@H]3CC[C@@]21C` was tested. Which “percent Bodipy-positive cells” value [1] did it give?
A: 35.5 ± 3.7%

Q: How did the “percent Bodipy-positive cells” value [1] turn out when `COc1ccc(C[C@H]2NC[C@H](O)[C@H]2OC(C)=O)cc1` [Anisomycin] [listing 1 of 2 here] was run?
A: 84.5 ± 1.7%

Q: `CCC(=O)O[C@@](Cc1ccccc1)(c1ccccc1)[C@@H](C)CN(C)C` [Levopropoxyphene napsylate] was tested. Which “percent Bodipy-positive cells” value did it give?
A: 24.8 ± 7.2%

Q: How did the “percent Bodipy-positive cells” value [1] turn out when `CC(C)(C)c1cc(C=C(C#N)C#N)cc(C(C)(C)C)c1O` [Tyrphostin 9] was run?
A: 90.4 ± 2.9%

Q: With `CC(C)=CCC[C@]1(C)C=Cc2c(O)c3c(c(CC=C(C)C)c2O1)O[C@]12C(=C[C@@H]4C[C@H]1C(C)(C)O[C@@]2(C/C=C(/C)C(=O)O)C4=O)C3=O` [Gambogic acid] as the compound, how does the “percent Bodipy-positive cells” value [1] read?
A: 100%

Q: How did the “percent Bodipy-positive cells” value [3] turn out when `CCNC(=O)C[C@@H]1N=C(c2ccc(Cl)cc2)c2cc(OC)ccc2-n2c(C)nnc21` was run?
A: 41 ± 1.6%

Q: What about the “percent Bodipy-positive cells” value [4] of the same compound?
A: 44.3 ± 20%

Q: And the “percent Bodipy-positive cells” value [5]?
A: 59.8 ± 13%

Q: And the “percent Bodipy-positive cells” value [2]?
A: 35 ± 7.3%

Q: What about the “percent Bodipy-positive cells” value [1] of the same compound?
A: 56.1% and 60.8%

Q: For `NCCc1cc(O)c(O)cc1O` [Oxidopamine hydrochloride], which “percent Bodipy-positive cells” value (library stock concentration: 9.7 mM) is on record?
A: 1.36 ± 1.2%

Q: And the “percent Bodipy-positive cells” value [1]?
A: 8.91 ± 3.5%

Q: Which “percent Bodipy-positive cells” value does the source give for `COc1ccc(C[C@H]2NC[C@H](O)[C@H]2OC(C)=O)cc1` [Anisomycin] [listing 2 of 2 here] here?
A: 88.9 ± 2.7%

Q: Which results are given for `C[N+](C)(C)CCCCCCCCCC[N+](C)(C)C` [Decamethonium Bromide]?
A: percent Bodipy-positive cells [2]: 8.03 ± 0.88%; percent Bodipy-positive cells [1]: 22.5 ± 5.9%

Q: With `C[N+](C)(C)CCCCCCCCCC[N+](C)(C)C` [Decamethonium bromide] as the compound, how does the “percent Bodipy-positive cells” value read?
A: 4.89 ± 0.47%

Q: What about the “percent Bodipy-positive cells” value (library stock concentration: 4.8 mM) of the same compound?
A: 2.8 ± 0.46%

Q: How did the “percent Bodipy-positive cells” value [1] turn out when `C[N+](C)(C)CCCCCCCCCC[N+](C)(C)C` [Decamethonium dibromide] was run?
A: 44 ± 16%

Q: Which “percent Bodipy-positive cells” value [1] does the source give for `c1ccc2nc(N3CCNCC3)ccc2c1` [Quipazine dimaleate] here?
A: 25 ± 3.8%

Q: How did the “percent Bodipy-positive cells” value turn out when `c1ccc2nc(N3CCNCC3)ccc2c1` [Quipazine dimaleate salt] was run?
A: 56.7 ± 8.8%

Q: For `c1ccc2nc(N3CCNCC3)ccc2c1` [Quipazine maleate], which “percent Bodipy-positive cells” value (library stock concentration: 6.1 mM) is on record?
A: 39.4 ± 3%

Q: Which results are given for `CN1C[C@H](C(=O)N[C@]2(C)O[C@@]3(O)[C@@H]4CCCN4C(=O)[C@H](Cc4ccccc4)N3C2=O)C[C@@H]2c3cccc4[nH]cc(c34)C[C@H]21` [Dihydroergotamine mesylate]?
A: percent Bodipy-positive cells (library stock concentration: 2.9 mM): 5.09 ± 6.6%; percent Bodipy-positive cells [1]: 28.8% and 24.4%

Q: For `CN1C[C@H](C(=O)N[C@]2(C)O[C@@]3(O)[C@@H]4CCCN4C(=O)[C@H](Cc4ccccc4)N3C2=O)C[C@@H]2c3cccc4[nH]cc(c34)C[C@H]21` [Dihydroergotamine tartrate], which “percent Bodipy-positive cells” value is on record?
A: 41.9 ± 7.2%

Q: For `O=C1NCN(c2ccccc2)C12CCN(CC1COc3ccccc3O1)CC2` (configuration not stated) [Spiroxatrine], which “percent Bodipy-positive cells” value (library stock concentration: 5.3 mM) is on record?
A: 12.1 ± 4.2%

Q: With `CC1C2Cc3ccc(O)cc3C1(C)CCN2CC1CC1` (single isomer, unassigned; (+)) [(+)-Cyclazocine] as the compound, how does the “percent Bodipy-positive cells” value [1] read?
A: 71.49 ± 0.66%

Q: For `C[N+]1(C)[C@@H]2CC[C@H]1C[C@@H](OC(=O)C(CO)c1ccccc1)C2` (some centres not stated) [Atropine methyl nitrate], which “percent Bodipy-positive cells” value [1] is on record?
A: 51.7 ± 15%

Q: How did the “percent Bodipy-positive cells” value [1] turn out when `C[N+]1(C)[C@@H]2CC[C@H]1C[C@@H](OC(=O)C(CO)c1ccccc1)C2` (some centres not stated) [Atropine methyl bromide] was run?
A: 50.6 ± 16%

Q: For `C[N+]1(C)[C@@H]2CC[C@H]1C[C@@H](OC(=O)C(CO)c1ccccc1)C2` (some centres not stated) [Methylatropine nitrate], which “percent Bodipy-positive cells” value is on record?
A: 8.64 ± 1.6%

Q: `NC1(c2ccccc2Cl)CCCCC1=O` (configuration not stated) [Norketamine hydrochloride] was tested. Which “percent Bodipy-positive cells” value [1] did it give?
A: 6.43 ± 3.7%

Q: With `Cl.Cl.Fc1ccc(C(OCCN2CCN(CCCc3ccccc3)CC2)c2ccc(F)cc2)cc1` as the compound, how does the “percent Bodipy-positive cells” value read?
A: 84.3 ± 3.8%

Q: Which “percent Bodipy-positive cells” value [1] does the source give for `O=C1NC(=O)c2c1c1c3ccccc3[nH]c1c1[nH]c3ccccc3c21` [Arcyriaflavin A] here?
A: 35.3 ± 3.5%

Q: Which “percent Bodipy-positive cells” value (library stock concentration: 6 mM) does the source give for `CC(CCc1ccccc1)NC(C)C(O)c1ccc(O)cc1` (configuration not stated) [Nylidrin hydrochloride] here?
A: 19.3 ± 0.69%

Q: With `COc1cccc(C2(O)CCCCC2CN(C)C)c1` (configuration not stated) [Tramadol] as the compound, how does the “percent Bodipy-positive cells” value [1] read?
A: 7.35 ± 0.76%

Q: With `COc1cccc(C2(O)CCCCC2CN(C)C)c1` (configuration not stated) [Tramadol HCl] as the compound, how does the “percent Bodipy-positive cells” value (library stock concentration: 7.6 mM) read?
A: 10.1 ± 1.3%

Q: `COc1cccc(C2(O)CCCCC2CN(C)C)c1` (configuration not stated) [Tramadol hydrochloride] was tested. Which “percent Bodipy-positive cells” value [6] did it give?
A: 15.4 ± 2.9%

Q: How did the “percent Bodipy-positive cells” value [1] turn out when `CC(=O)OC1CN2CCC1CC2` (configuration not stated) was run?
A: 36.1 ± 8.2%

Q: Which “percent Bodipy-positive cells” value [1] does the source give for `CCCN(C/C=C/I)C1CCc2ccc(O)cc2C1` (configuration not stated) [7-Hydroxy-PIPAT maleate] here?
A: 23.4 ± 5.4%

Q: `N=C(N)c1ccc(CS(=O)(=O)F)cc1` [4-Amidinophenylmethanesulfonyl fluoride hydrochloride] was tested. Which “percent Bodipy-positive cells” value [1] did it give?
A: 29.1 ± 0.45%

Q: How did the “percent Bodipy-positive cells” value [7] turn out when `Cc1c(C(=O)c2cccc3ccccc23)c2cccc3c2n1[C@H](CN1CCOCC1)CO3` [WIN 55,212-2 mesylate] was run?
A: 8.24 ± 9.2%

Q: For `CCCCC/C=C\C/C=C\C/C=C\C/C=C\CCCC(=O)NCCF` [Arachidonoyl-2'-Fluoroethylamide], which “percent Bodipy-positive cells” value [7] is on record?
A: 9.73 ± 2.3%

Q: How did the “percent Bodipy-positive cells” value [3] turn out when `O=C(O)CNC(=O)c1c(O)c2ccccc2n(Cc2ccccc2)c1=O` was run?
A: 32 ± 5%

Q: And the “percent Bodipy-positive cells” value [4]?
A: 25.8 ± 1.5%

Q: And the “percent Bodipy-positive cells” value [5]?
A: 29.7 ± 5.1%

Q: What about the “percent Bodipy-positive cells” value [2] of the same compound?
A: 13.8 ± 0.44%

Q: What about the “percent Bodipy-positive cells” value [1] of the same compound?
A: 30.1% and 32.3%

Q: How did the “percent Bodipy-positive cells” value (library stock concentration: 9.9 mM) turn out when `CN1CC[C@]23CCCC[C@H]2[C@H]1Cc1ccc(O)cc13` was run?
A: 16.1 ± 3.4%

Q: How did the “percent Bodipy-positive cells” value turn out when `CCCCc1ccc(C(=O)O)nc1` [Fusaric acid] was run?
A: 30.9 ± 2.1%

Q: And the “percent Bodipy-positive cells” value [1]?
A: 38.2 ± 7.5%

Q: With `CCCN1C[C@H](CSC)C[C@@H]2c3cccc4[nH]cc(c34)C[C@H]21` as the compound, how does the “percent Bodipy-positive cells” value [1] read?
A: 49.7 ± 1.5%

Q: For `CCCN1C[C@H](CSC)C[C@@H]2c3cccc4[nH]cc(c34)C[C@H]21` [Pergolide mesylate], which “percent Bodipy-positive cells” value is on record?
A: 51.1 ± 16%

Q: What about the “percent Bodipy-positive cells” value [2] of the same compound?
A: 17.7 ± 6.9%

Q: What about the “percent Bodipy-positive cells” value (library stock concentration: 4.9 mM) of the same compound?
A: 35.8 ± 1.5%

Q: What about the “percent Bodipy-positive cells” value (library stock concentration: 6.4 mM) of the same compound?
A: 28.9 ± 1.2%

Q: And the “percent Bodipy-positive cells” value [1]?
A: 66.2% and 61.3%

Q: Which “percent Bodipy-positive cells” value [1] does the source give for `CCCN1C[C@H](CSC)C[C@@H]2c3cccc4[nH]cc(c34)C[C@H]21` [Pergolide methanesulfonate] here?
A: 36.1 ± 5%

Q: Which “percent Bodipy-positive cells” value [2] does the source give for `CC(=O)Nc1ccc(Cc2ccc(NC(C)=O)cc2)cc1` here?
A: 39.6 ± 6.1%

Q: And the “percent Bodipy-positive cells” value [1]?
A: 44.4 ± 2.2%

Q: Which “percent Bodipy-positive cells” value [1] does the source give for `C=C(C)[C@@H]1[C@H]2OC(=O)[C@@H]1[C@]1(O)C[C@H]3O[C@]34C(=O)O[C@H]2[C@]14C.CC(C)(O)[C@@H]1[C@H]2OC(=O)[C@@H]1[C@]1(O)C[C@H]3O[C@]34C(=O)O[C@H]2[C@]14C` [Picrotin - Picrotoxinin] here?
A: 8.93 ± 0.99%

Q: For `N.N.[Cl][Pt][Cl]` [Cisplatin], which “percent Bodipy-positive cells” value [2] is on record?
A: 8.43 ± 5.2%

Q: And the “percent Bodipy-positive cells” value [6]?
A: 23.1 ± 7.2%

Q: What does the source list for `COc1cc(-n2c(=S)[nH]c3ccccc3c2=O)c(Cl)cc1Cl` [Mdivi-1]?
A: percent Bodipy-positive cells [2]: 27 ± 2.3%; percent Bodipy-positive cells [1]: 23.18 ± 0.18%

Q: With `C[N+](C)(C)CC#CCOC(=O)Nc1cccc(Cl)c1` as the compound, how does the “percent Bodipy-positive cells” value [1] read?
A: 32.5 ± 8.8%
